PubChem BioAssay AID1224826 – NIAID | 2016
Purpose: 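Genes that change LPS-induced Tnf promoter activity in mouse macrophages when knocked down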 (primary screen). Cell system: RAW264.7 G9 macrophages from mouse bearing reporters for p65 (GFP) and the Tnf promoter (mCherry). Reagents: siRNA pool against mouse genes, 100 nM. Time to read-out: 16 h of LPS stimulation, after 2 days of siRNA transfection. Conditions: bacterial lipopolysaccharide (Salmonella minnesota R595), 10 ng/ml. Read-out: 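Imaged Tnf reporter mCherry in nuclei, minus background, normalised per plate to the median and expressed as robust z-scores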. Scale: Tnf reporter robust z-score: higher = stronger Tnf promoter reporter signal after LPS; Tnf reporter intensity: higher = stronger Tnf promoter reporter signal. Rule for the call: 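a well counts as active at a score of -1.3 or below (Tlr4 knock-down control median) or above 3 (raised signal); controls and wells holding fewer than 50 cells are excluded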. Calls: active = Tnf reporter clearly lowered or raised; inactive = no clear change in Tnf reporter.
The deposit covers about 17,000 reagents; below is an unselected part. Over the whole deposit, about 1,110 (6.6%) are marked active. 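Active means lowered or raised reporter signal; replicate intensities are raw and not normalised per plate.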

gene | PubChem SID | Tnf reporter robust z-score | fewer than 50 cells in well | Tnf reporter intensity, replicate 1 | Tnf reporter intensity, replicate 2 | call
Mycbp | SID315471447 | -0.31 | enough cells in well | 194 | 99.9 | inactive
Hnrnpu | SID315470913 | 1.49 | enough cells in well | 320 | 280 | inactive
Ugt2b34 | SID315476245 | -0.99 | enough cells in well | 93.1 | 113 | inactive
Hnf4a | SID315467240 | -0.2 | enough cells in well | 221 | 176 | inactive
Vmn2r81 | SID315477974 | -0.86 | enough cells in well | 172 | 109 | inactive
Gm14296 | SID315475421 | 0.61 | enough cells in well | 163 | 75.3 | inactive
Gm14296 | SID315479803 | – | fewer than 50 cells per well; well left out of calls | 167 | 196 | inactive
Edn2 | SID315466437 | 1.43 | enough cells in well | 324 | 205 | inactive
Npy2r | SID315468233 | 0.72 | enough cells in well | 328 | 112 | inactive
9930111J21Rik2 | SID315479806 | -0.74 | enough cells in well | 121 | 155 | inactive
Pcdhb19 | SID315476002 | 0.38 | enough cells in well | 270 | 206 | inactive
Rpl3 | SID315470580 | – | fewer than 50 cells per well; well left out of calls | 17.6 | 16.4 | inactive
Rnaseh1 | SID315468985 | – | fewer than 50 cells per well; well left out of calls | 53.5 | 45.1 | inactive
Aldh3b1 | SID315473168 | -0.59 | enough cells in well | 128 | 144 | inactive
Sirt7 | SID315477570 | 0.53 | enough cells in well | 116 | 122 | inactive
2210016L21Rik | SID315474529 | – | fewer than 50 cells per well; well left out of calls | 167 | 52.2 | inactive
Tas2r124 | SID315481863 | 3.06 | enough cells in well | 241 | 188 | active
Krt13 | SID315467684 | -0.68 | enough cells in well | 206 | 101 | inactive
Mmp19 | SID315471882 | 0.75 | enough cells in well | 296 | 285 | inactive
Spred3 | SID315476299 | 0.39 | enough cells in well | 217 | 191 | inactive
Aasdhppt | SID315473128 | 1.88 | enough cells in well | 243 | 291 | inactive
Erg28 | SID315471905 | 1.57 | enough cells in well | 462 | 101 | inactive
Fxyd1 | SID315471386 | -0.71 | enough cells in well | 224 | 152 | inactive
Dhx38 | SID315472091 | -1.33 | enough cells in well | 83.8 | 75.7 | active
Pgpep1 | SID315472490 | -0.55 | enough cells in well | 204 | 66.4 | inactive
Tas2r113 | SID315481858 | – | fewer than 50 cells per well; well left out of calls | 76.5 | 52 | inactive
Bop1 | SID315465666 | -0.7 | enough cells in well | 53.9 | 123 | inactive
Vmn2r30 | SID315469971 | -1.37 | enough cells in well | 73.1 | 40.5 | active
Aicda | SID315465361 | -0.69 | enough cells in well | 124 | 136 | inactive

Records listed above with an active call (3):
gene | PubChem SID | Tnf reporter robust z-score | fewer than 50 cells in well | Tnf reporter intensity, replicate 1 | Tnf reporter intensity, replicate 2 | call
Tas2r124 | SID315481863 | 3.06 | enough cells in well | 241 | 188 | active
Dhx38 | SID315472091 | -1.33 | enough cells in well | 83.8 | 75.7 | active
Vmn2r30 | SID315469971 | -1.37 | enough cells in well | 73.1 | 40.5 | active

Further results follow.
gene | PubChem SID | Tnf reporter robust z-score | fewer than 50 cells in well | Tnf reporter intensity, replicate 1 | Tnf reporter intensity, replicate 2 | call
Isl2 | SID315476435 | -0.42 | enough cells in well | 219 | 120 | inactive
Eef1akmt2 | SID315474452 | – | fewer than 50 cells per well; well left out of calls | 65.1 | 77.9 | inactive
Cops6 | SID315470463 | -0.16 | enough cells in well | 194 | 148 | inactive
Or4k15b | SID315480005 | 2.46 | enough cells in well | 206 | 182 | inactive
Faap24 | SID315476300 | – | fewer than 50 cells per well; well left out of calls | 146 | 250 | inactive
Nmt1 | SID315468195 | -0.08 | enough cells in well | 188 | 142 | inactive
Cmtm3 | SID315473419 | 0.79 | enough cells in well | 174 | 270 | inactive
Cap1 | SID315465742 | -1.35 | enough cells in well | 85.5 | 78.8 | active
BC051019 | SID315471769 | -0.84 | enough cells in well | 136 | 95.7 | inactive
Cd302 | SID315472289 | -0.73 | enough cells in well | 119 | 120 | inactive
Tmem135 | SID315474623 | 0.27 | enough cells in well | 188 | 47.5 | inactive
Appl2 | SID315477985 | 0.88 | enough cells in well | 204 | 174 | inactive
Ache | SID315465246 | -0.91 | enough cells in well | 133 | 98.3 | inactive
Glipr1 | SID315474763 | -0.52 | enough cells in well | 198 | 154 | inactive
Emilin3 | SID315481019 | -0.4 | enough cells in well | 164 | 13.2 | inactive
Plp1 | SID315468593 | 0.32 | enough cells in well | 271 | 215 | inactive
Etnk2 | SID315477852 | – | fewer than 50 cells per well; well left out of calls | 105 | 85.9 | inactive
Entpd7 | SID315475920 | 1.29 | enough cells in well | 378 | 181 | inactive
Or4a79 | SID315481947 | 1.27 | enough cells in well | 264 | 168 | inactive
Ncapd3 | SID315475598 | 1.06 | enough cells in well | 221 | 233 | inactive
Klhl6 | SID315479460 | -0.51 | enough cells in well | 167 | 88.6 | inactive
Lpin1 | SID315466714 | -1.17 | enough cells in well | 118 | 79 | inactive
Rras2 | SID315472717 | -0.23 | enough cells in well | 292 | 184 | inactive
Pcbp1 | SID315470269 | 0.09 | enough cells in well | 170 | 120 | inactive
Ero1b | SID315473054 | – | fewer than 50 cells per well; well left out of calls | 84.6 | 39.7 | inactive
Cpxm2 | SID315471329 | -0.18 | enough cells in well | 155 | 184 | inactive
Adap1 | SID315478930 | 0.95 | enough cells in well | 233 | 211 | inactive
Chmp5 | SID315475422 | – | fewer than 50 cells per well; well left out of calls | 118 | 54.8 | inactive
Krt14 | SID315467685 | 0.44 | enough cells in well | 251 | 190 | inactive
